The record followed here is PMC6042963.

Amino acid sequences for entries named in this document (tags omitted).
UniProt P01375: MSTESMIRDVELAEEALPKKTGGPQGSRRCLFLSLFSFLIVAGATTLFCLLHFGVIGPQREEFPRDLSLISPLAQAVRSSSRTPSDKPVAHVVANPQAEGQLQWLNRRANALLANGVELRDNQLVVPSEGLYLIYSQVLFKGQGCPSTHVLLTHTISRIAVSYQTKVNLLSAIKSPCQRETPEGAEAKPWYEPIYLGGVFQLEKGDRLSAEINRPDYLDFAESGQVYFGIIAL
UniProt Q86WV6: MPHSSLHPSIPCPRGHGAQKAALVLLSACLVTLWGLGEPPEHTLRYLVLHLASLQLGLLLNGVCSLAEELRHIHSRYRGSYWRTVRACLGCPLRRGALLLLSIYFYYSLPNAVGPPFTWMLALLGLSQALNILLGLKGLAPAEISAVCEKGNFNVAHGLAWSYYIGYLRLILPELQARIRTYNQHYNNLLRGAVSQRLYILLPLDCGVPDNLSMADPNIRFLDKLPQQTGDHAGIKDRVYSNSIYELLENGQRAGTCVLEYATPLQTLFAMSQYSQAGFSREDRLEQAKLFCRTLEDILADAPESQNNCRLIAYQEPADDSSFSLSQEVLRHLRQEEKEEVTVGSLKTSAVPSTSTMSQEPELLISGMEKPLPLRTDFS

These are yes or no findings as the source states them, for the method shown. Binding seen in cells or lysates may run through a third protein. Here binding means that the protein was enriched with, or labelled near, the bait; the list need not be complete. For some assays here: A no says only that the protein was not detected with the bait. For some assays here: Sequences can lack the tags named with a protein.

Common to all, as to assay: affinity purification with mass spectrometry; anti-FLAG M2 Affinity Gel immunoprecipitates from HEK 293ET transfected with FLAG-tagged proteins; on-bead trypsin digest, mass spectrometry
In one experiment the target is T1, SREBP2-FLAG (human) (UniProt Q12772).
T1 sequence: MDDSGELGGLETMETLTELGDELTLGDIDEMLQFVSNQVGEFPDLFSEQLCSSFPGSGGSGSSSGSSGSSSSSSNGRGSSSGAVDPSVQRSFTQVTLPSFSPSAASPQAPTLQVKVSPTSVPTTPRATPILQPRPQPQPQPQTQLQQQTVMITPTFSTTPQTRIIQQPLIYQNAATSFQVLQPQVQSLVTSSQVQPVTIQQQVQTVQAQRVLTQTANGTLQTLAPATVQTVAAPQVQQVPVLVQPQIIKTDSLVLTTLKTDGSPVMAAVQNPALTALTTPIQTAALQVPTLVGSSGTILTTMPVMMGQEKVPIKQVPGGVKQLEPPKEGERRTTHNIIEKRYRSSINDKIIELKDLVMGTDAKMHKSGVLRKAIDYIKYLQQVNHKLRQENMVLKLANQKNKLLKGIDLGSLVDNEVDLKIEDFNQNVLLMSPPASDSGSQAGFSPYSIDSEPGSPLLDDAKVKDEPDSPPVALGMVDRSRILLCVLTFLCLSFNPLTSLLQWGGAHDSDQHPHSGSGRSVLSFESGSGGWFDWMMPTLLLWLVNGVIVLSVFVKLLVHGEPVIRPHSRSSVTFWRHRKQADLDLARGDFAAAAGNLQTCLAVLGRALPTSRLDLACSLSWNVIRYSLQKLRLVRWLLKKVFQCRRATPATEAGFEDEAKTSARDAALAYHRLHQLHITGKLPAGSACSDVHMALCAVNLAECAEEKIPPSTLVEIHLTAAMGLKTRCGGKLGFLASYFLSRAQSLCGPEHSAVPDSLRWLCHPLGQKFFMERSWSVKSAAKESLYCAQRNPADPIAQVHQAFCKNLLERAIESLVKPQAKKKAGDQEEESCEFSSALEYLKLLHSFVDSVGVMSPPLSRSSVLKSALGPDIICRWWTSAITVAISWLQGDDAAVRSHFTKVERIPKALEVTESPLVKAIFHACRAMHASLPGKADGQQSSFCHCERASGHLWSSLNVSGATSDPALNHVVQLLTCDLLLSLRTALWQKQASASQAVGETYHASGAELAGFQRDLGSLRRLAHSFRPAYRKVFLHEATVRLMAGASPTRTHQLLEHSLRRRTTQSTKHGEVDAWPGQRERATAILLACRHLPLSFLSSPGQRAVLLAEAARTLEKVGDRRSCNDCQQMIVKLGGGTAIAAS

Experiment [1] concerns the target Human Tumor Necrosis Factor (TNF) containing an N-terminal FLAG tag (human) (UniProt P01375).
A further experiment deals with T2, human iTAP-FLAG (human) (UniProt Q9BZ67).
T2 sequence: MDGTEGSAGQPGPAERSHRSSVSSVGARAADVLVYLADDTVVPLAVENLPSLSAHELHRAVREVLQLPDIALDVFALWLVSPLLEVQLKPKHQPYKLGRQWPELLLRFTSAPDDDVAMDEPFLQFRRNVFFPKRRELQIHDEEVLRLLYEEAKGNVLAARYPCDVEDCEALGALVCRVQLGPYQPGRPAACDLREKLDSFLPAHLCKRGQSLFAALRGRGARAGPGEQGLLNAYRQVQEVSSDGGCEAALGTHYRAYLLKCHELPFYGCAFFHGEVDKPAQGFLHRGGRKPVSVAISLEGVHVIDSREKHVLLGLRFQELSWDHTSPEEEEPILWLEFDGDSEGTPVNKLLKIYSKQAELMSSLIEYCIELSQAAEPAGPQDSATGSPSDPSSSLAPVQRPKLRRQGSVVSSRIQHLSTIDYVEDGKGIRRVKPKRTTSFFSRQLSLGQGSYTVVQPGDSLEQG

The target in experiment [2] is STING-FLAG (human), Q86WV6. The settings on record: remark: other sources report otherwise.
The next experiment concerns the target STING-FLAG (human) (UniProt Q86WV6).

B1: endogenous iRhom2 (protein, UniProt Q6PJF5 1-856)
chain: MASADKNGGSVSSVSSSRLQSRKPPNLSITIPPPEKETQAPGEQDSMLPEGFQNRRLKKSQPRTWAAHTTACPPSFLPKRKNPAYLKSVSLQEPRSRWQESSEKRPGFRRQASLSQSIRKGAAQWFGVSGDWEGQRQQWQRRSLHHCSMRYGRLKASCQRDLELPSQEAPSFQGTESPKPCKMPKIVDPLARGRAFRHPEEMDRPHAPHPPLTPGVLSLTSFTSVRSGYSHLPRRKRMSVAHMSLQAAAALLKGRSVLDATGQRCRVVKRSFAFPSFLEEDVVDGADTFDSSFFSKEEMSSMPDDVFESPPLSASYFRGIPHSASPVSPDGVQIPLKEYGRAPVPGPRRGKRIASKVKHFAFDRKKRHYGLGVVGNWLNRSYRRSISSTVQRQLESFDSHRPYFTYWLTFVHVIITLLVICTYGIAPVGFAQHVTTQLVLRNKGVYESVKYIQQENFWVGPSSIDLIHLGAKFSPCIRKDGQIEQLVLRERDLERDSGCCVQNDHSGCIQTQRKDCSETLATFVKWQDDTGPPMDKSDLGQKRTSGAVCHQDPRTCEEPASSGAHIWPDDITKWPICTEQARSNHTGFLHMDCEIKGRPCCIGTKGSCEITTREYCEFMHGYFHEEATLCSQVHCLDKVCGLLPFLNPEVPDQFYRLWLSLFLHAGVVHCLVSVVFQMTILRDLEKLAGWHRIAIIFILSGITGNLASAIFLPYRAEVGPAGSQFGLLACLFVELFQSWPLLERPWKAFLNLSAIVLFLFICGLLPWIDNIAHIFGFLSGLLLAFAFLPYITFGTSDKYRKRALILVSLLAFAGLFAALVLWLYIYPINWPWIEHLTCFPFTSRFCEKYELDQVLH
As for B1, the figures for the binding result (with SREBP2-FLAG (human); in experiment [1]; with human iTAP-FLAG (human)) were “no binding”, “no binding” and “binds”, respectively.

B2: endogenous iRhom2, Q6PJF5 1-856 (protein)
chain: B1 chain
For B2, the binding entry in experiment [2] is on record as “no binding”.

B3: endogenous iRhom1 (protein, UniProt Q96CC6 1-855)
chain: MSEARRDSTSSLQRKKPPWLKLDIPSAVPLTAEEPSFLQPLRRQAFLRSVSMPAETAHISSPHHELRRPVLQRQTSITQTIRRGTADWFGVSKDSDSTQKWQRKSIRHCSQRYGKLKPQVLRELDLPSQDNVSLTSTETPPPLYVGPCQLGMQKIIDPLARGRAFRVADDTAEGLSAPHTPVTPGAASLCSFSSSRSGFHRLPRRRKRESVAKMSFRAAAALMKGRSVRDGTFRRAQRRSFTPASFLEEDTTDFPDELDTSFFAREGILHEELSTYPDEVFESPSEAALKDWEKAPEQADLTGGALDRSELERSHLMLPLERGWRKQKEGAAAPQPKVRLRQEVVSTAGPRRGQRIAVPVRKLFAREKRPYGLGMVGRLTNRTYRKRIDSFVKRQIEDMDDHRPFFTYWLTFVHSLVTILAVCIYGIAPVGFSQHETVDSVLRNRGVYENVKYVQQENFWIGPSSEALIHLGAKFSPCMRQDPQVHSFIRSAREREKHSACCVRNDRSGCVQTSEEECSSTLAVWVKWPIHPSAPELAGHKRQFGSVCHQDPRVCDEPSSEDPHEWPEDITKWPICTKNSAGNHTNHPHMDCVITGRPCCIGTKGRCEITSREYCDFMRGYFHEEATLCSQVHCMDDVCGLLPFLNPEVPDQFYRLWLSLFLHAGILHCLVSICFQMTVLRDLEKLAGWHRIAIIYLLSGVTGNLASAIFLPYRAEVGPAGSQFGILACLFVELFQSWQILARPWRAFFKLLAVVLFLFTFGLLPWIDNFAHISGFISGLFLSFAFLPYISFGKFDLYRKRCQIIIFQVVFLGLLAGLVVLFYVYPVRCEWCEFLTCIPFTDKFCEKYELDAQLH
As for B3, the binding entry with STING-FLAG (human) was “no binding”; with SREBP2-FLAG (human), “no binding”; in experiment [1], “no binding”; with human iTAP-FLAG (human), “binds”.
